According to publication PMC5789973:
These are yes or no findings as the source states them, for the method shown. For part of these data: Binding seen in cells or lysates may run through a third protein. Some results given as binding are weak or reduced against the parent protein; the word gives no strength. Blank lines part the entries; values can stand above or below the molecule they belong to.

Chains of the proteins cited; added tags and fusions are not shown.
UniProt P46938: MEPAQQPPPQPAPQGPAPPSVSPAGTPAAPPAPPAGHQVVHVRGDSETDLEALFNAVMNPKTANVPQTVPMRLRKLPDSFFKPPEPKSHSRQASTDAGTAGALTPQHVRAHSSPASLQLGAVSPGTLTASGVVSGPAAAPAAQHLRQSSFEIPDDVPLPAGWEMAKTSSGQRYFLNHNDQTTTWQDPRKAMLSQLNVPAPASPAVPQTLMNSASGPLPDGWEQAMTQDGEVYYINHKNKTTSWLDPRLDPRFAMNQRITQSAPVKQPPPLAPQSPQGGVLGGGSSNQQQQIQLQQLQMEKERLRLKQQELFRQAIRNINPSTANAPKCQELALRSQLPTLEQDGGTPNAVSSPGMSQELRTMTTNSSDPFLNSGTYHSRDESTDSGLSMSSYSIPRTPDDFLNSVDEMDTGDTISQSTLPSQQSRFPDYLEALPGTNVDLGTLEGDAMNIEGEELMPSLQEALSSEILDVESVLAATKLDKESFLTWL
UniProt P48301: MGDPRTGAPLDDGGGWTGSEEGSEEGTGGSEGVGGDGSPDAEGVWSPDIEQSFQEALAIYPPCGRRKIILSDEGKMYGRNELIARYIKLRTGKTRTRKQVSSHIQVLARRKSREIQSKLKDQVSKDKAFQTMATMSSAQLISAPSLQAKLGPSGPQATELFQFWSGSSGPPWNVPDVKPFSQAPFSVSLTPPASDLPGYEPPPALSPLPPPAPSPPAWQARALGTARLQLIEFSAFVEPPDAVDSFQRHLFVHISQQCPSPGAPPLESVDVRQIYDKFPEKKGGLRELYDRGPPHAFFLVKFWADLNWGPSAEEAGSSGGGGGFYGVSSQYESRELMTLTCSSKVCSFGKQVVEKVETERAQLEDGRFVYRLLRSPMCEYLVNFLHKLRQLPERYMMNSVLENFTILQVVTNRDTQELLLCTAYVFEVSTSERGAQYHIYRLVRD
UniProt Q02248: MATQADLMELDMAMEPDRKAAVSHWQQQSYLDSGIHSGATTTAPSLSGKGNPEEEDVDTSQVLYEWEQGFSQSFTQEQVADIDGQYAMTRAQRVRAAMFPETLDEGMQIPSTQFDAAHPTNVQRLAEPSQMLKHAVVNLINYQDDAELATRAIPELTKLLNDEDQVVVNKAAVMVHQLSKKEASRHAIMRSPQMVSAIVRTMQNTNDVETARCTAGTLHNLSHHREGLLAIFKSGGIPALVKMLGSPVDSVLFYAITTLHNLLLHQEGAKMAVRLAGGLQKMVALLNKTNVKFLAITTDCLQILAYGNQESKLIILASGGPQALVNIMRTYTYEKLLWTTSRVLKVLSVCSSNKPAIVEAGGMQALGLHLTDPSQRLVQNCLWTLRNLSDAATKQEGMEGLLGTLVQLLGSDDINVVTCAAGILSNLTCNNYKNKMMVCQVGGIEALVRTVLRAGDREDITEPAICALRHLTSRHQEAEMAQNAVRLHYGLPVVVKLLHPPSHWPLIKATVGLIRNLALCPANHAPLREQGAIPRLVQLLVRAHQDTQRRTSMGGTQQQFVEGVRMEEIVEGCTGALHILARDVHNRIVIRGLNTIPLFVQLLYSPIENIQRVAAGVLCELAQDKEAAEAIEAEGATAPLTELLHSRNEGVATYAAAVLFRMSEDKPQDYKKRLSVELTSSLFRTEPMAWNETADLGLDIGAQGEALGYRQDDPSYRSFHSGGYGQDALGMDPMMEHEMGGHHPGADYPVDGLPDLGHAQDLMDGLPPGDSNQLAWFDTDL

Legend:
[1] = target: FLAG–YAP-S127A (human) (UniProt P46937); assay: co-IP; FLAG immunoprecipitates from ESC transiently transfected with FLAG–YAP or FLAG–YAP-S127A, with or without RASSF1A; western blot
[2] = target: FLAG–YAP (human) (UniProt P46937); assay: as above
[3] = target: YAP (mouse (endogenous in E14Tg2a ESC and in iPSC from MEFs)) (UniProt P46938); assay: co-IP; anti-YAP or anti-TEF-4 (TEAD2) immunoprecipitates from ESC lysates (1% NP40, 150 mM NaCl, 3 h at 4 °C), western blot; cells with siRassf1A, shRassf1A, YAP depletion or RASSF1A expression
[4] = target: YAP (mouse (endogenous in E14Tg2a ESC and in iPSC from MEFs)) (UniProt P46938); assay: SEC; whole cell extracts of ESC in the presence of LIF on Superdex 200 HR 10/30 (20 mM HEPES pH 7.5, 150 mM NaCl, 0.5 mM EDTA, 0.25 mM DTT); fractions western blotted
[5] = target: YAP (mouse (endogenous in E14Tg2a ESC and in iPSC from MEFs)) (UniProt P46938); assay: SEC; whole cell extracts of differentiating ESC (-LIF day 4) on Superdex 200 HR 10/30 (20 mM HEPES pH 7.5, 150 mM NaCl, 0.5 mM EDTA, 0.25 mM DTT); fractions western blotted
[6] = target: YAP (mouse (endogenous in E14Tg2a ESC and in iPSC from MEFs)) (UniProt P46938); assay: co-IP; anti-YAP or anti-TEF-4 (TEAD2) immunoprecipitates from ESC lysates (1% NP40, 150 mM NaCl, 3 h at 4 °C), western blot; cells with siRassf1A, shRassf1A, YAP depletion or RASSF1A expression; remark: listed apart in the source
[7] = target: TEAD2 (mouse (endogenous in E14Tg2a ESC and in iPSC from MEFs)) (UniProt P48301); assay: as above
[8] = target: pS127-YAP (mouse (endogenous in E14Tg2a ESC)) (UniProt P46938); assay: proximity ligation; Duolink PLA with anti-pS127 YAP and anti-p73 on fixed ESC expressing RASSF1A
[9] = target: pS127-YAP (mouse (endogenous in E14Tg2a ESC)) (UniProt P46938); assay: proximity ligation; Duolink PLA with anti-pS127 YAP and anti-p73 on fixed ESC not expressing RASSF1A

binding [1]: binds
binding [2]: binds
binding [3]: binds
binding [4]: binds
Molecule: TEAD2 (from UniProt P48301 1-445)
binding [5]: no binding (condition: differentiation (-LIF day 4))

binding [6]: binds
binding [7]: binds
binding [4]: binds
B1: TCF3 (protein, UniProt Q9Z1J1 1-584)
chain: MPQLGGGRGGAGGGGGGSGAGATSGGDDLGANDELIPFQDEGGEEQEPSSDTASAQRDLDEVKSSLVNESENQSSSSDSEAERRPQPARDAFQKPRDYFAEVRRPQDGAFFKGGAYPGYPFLMIPDLSSPYLSNGPLSPGGARTYLQMKWPLLDVPSSATVKDTRSPSPAHLSNKVPVVQHPHHMHPLTPLITYSNDHFSPASPPTHLSPEIDPKTGIPRPPHPSELSPYYPLSPGAVGQIPHPLGWLVPQQGQPMYSLPPGGFRHPYPALAMNASMSSLVSSRFPHMVAPAHPGLPTSGIPHPAIVSPIVKQEPAAPSLSPAVSAKSPVTVKKEEEKKPHVKKPLNAFMLYMKEMRAKVVAECTLKESAAINQILGRKWHNLSREEQAKYYELARKERQLHAQLYPTWSARDNYGKKKKRKREKQLSQTQSQQQIQEAEGALASKSKKPCIQYLPPEKPCDSPASSHGSALDSPATPSAALASPAAPAATHSEQAQPLSLTTKPEARAQLALHSAAFLSAKAAASNSSQMGSQPPLLSRPLPLGSMPAALLTSPPTFPATLHAHQALPVLQAQPLSLVTKSAH
binding [5]: no binding (condition: differentiation (-LIF day 4))

Continued, molecule first:

Molecule: β-catenin (from UniProt Q02248 1-781)
binding [1]: binds
binding [2]: binds
binding [3]: binds
binding [4]: binds
binding [5]: no binding (condition: differentiation (-LIF day 4))

B2: p73 (protein, UniProt Q9JJP2 1-631)
chain: MAQTSSSSSSTFEHLWSSLEPDSTYFDLPQPSQGTSEASGSEESNMDVFHLQGMAQFNLLSSAMDQMGSRAAPASPYTPEHAASAPTHSPYAQPSSTFDTMSPAPVIPSNTDYPGPHHFEVTFQQSSTAKSATWTYSPLLKKLYCQIAKTCPIQIKVSTPPPPGTAIRAMPVYKKAEHVTDIVKRCPNHELGRDFNEGQSAPASHLIRVEGNNLAQYVDDPVTGRQSVVVPYEPPQVGTEFTTILYNFMCNSSCVGGMNRRPILVIITLETRDGQVLGRRSFEGRICACPGRDRKADEDHYREQQALNESTTKNGAASKRAFKQSPPAIPALGTNVKKRRHGDEDMFYMHVRGRENFEILMKVKESLELMELVPQPLVDSYRQQQQQQLLQRPSHLQPPSYGPVLSPMNKVHGGVNKLPSVNQLVGQPPPHSSAAGPNLGPMGSGMLNSHGHSMPANGEMNGGHSSQTMVSGSHCTPPPPYHADPSLVSFLTGLGCPNCIECFTSQGLQSIYHLQNLTIEDLGALKVPDQYRMTIWRGLQDLKQSHDCGQQLLRSSSNAATISIGGSGELQRQRVMEAVHFRVRHTITIPNRGGAGAVTGPDEWADFGFDLPDCKSRKQPIKEEFTETESH
binding [2]: binds
binding [6]: binds
binding [8]: binds
binding [9]: no binding (condition: cells not expressing RASSF1A)
